Values from PubChem BioAssay AID493246 (Drosophila RNAi Screening Center, 2011).

Test: 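Identify essential fly genes by loss of cell viability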 (primary screen)
Cells: Drosophila Kc and S2R+ cells
Reagent: long dsRNA against Drosophila genes
Measured: 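Raw, unnormalised count of remaining cells in each well; per-plate z-scores of cell number underlie the calls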
Reading the numbers: Kc cell number and S2R+ cell number: higher = more cells remaining
Active means: 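Active when the per-plate z-score of cell number is 3 or more in the direction of fewer cells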
In all, the deposit lists about 21,000 reagents; this is a random part of those with a known target gene and a result. Over the whole deposit, 429 (2%) are marked active. 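Values are raw and not normalised between plates; calls rest on per-plate z-scores that were not deposited.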 Entries without a mark were called inactive. Names joined by + are all predicted targets of the reagent. Reagent sequences are not shown. Not given: the amount of reagent, the time to read-out.

| Target gene | amplicon | Kc cell number, rep 1 | Kc cell number, rep 2 | S2R+ cell number, rep 1 | S2R+ cell number, rep 2 |
| --- | --- | --- | --- | --- | --- |
| kz (GeneID 31205) | DRSC18786 | 1.48e6 | 1.51e6 | 1.15e6 | 1.35e6 |
| Syx7 (GeneID 36173) | DRSC11763 | 1.52e6 | 1.56e6 | 1.21e6 | 1.23e6 |
| 128up (GeneID 36288) | DRSC05027 | 1.31e6 | 1.37e6 | 1.18e6 | 1.15e6 |
| cv (GeneID 44510) | DRSC17833 | 1.61e6 | 1.57e6 | 1.08e6 | 1.15e6 |
| MESR6 (GeneID 40083) | DRSC10720 | 1.56e6 | 1.59e6 | 1.24e6 | 1.65e6 |
| CG3526 (GeneID 31277) | DRSC17240 | 1.12e6 | 1.28e6 | 1.12e6 | 1.11e6 |
| CG3526 (GeneID 31277) | DRSC18636 | 1.55e6 | 1.51e6 | 1.04e6 | 1.16e6 |
| Ipp (GeneID 41701) | DRSC16718 | 1.47e6 | 1.69e6 | 1.02e6 | 1.09e6 |
| Ir68b (GeneID 39378) | DRSC10251 | 1.24e6 | 1.26e6 | 1.45e6 | 1.53e6 |
| Ilp7 (GeneID 31328) | DRSC17895 | 1.61e6 | 1.52e6 | 1.04e6 | 1.20e6 |
| ymp (GeneID 43088) | DRSC13720 | 1.40e6 | 1.70e6 | 1.11e6 | 9.52e5 |
| ymp (GeneID 43088) | DRSC14482 | 1.55e6 | 1.44e6 | 1.00e6 | 1.09e6 |
| Cyp6a13 (GeneID 35837) | DRSC07375 | 1.43e6 | 1.48e6 | 1.21e6 | 1.26e6 |
| plum (GeneID 43197) | DRSC16054 | 5.20e5 | – | 7.80e5 | – |
| Cpr72Ea (GeneID 39814) | DRSC10451 | 1.62e6 | 1.62e6 | 1.32e6 | 1.41e6 |
| CG32196 (GeneID 317908) | DRSC09548 | 1.74e6 | 1.90e6 | 1.27e6 | 1.46e6 |
| Ugt37D1 (GeneID 53511) | DRSC02645 | 1.51e6 | 1.60e6 | 1.15e6 | 1.26e6 |

Continued; the last 4 above are carried over.
| Target gene | amplicon | Kc cell number, rep 1 | Kc cell number, rep 2 | S2R+ cell number, rep 1 | S2R+ cell number, rep 2 |
| --- | --- | --- | --- | --- | --- |
| plum (GeneID 43197) | DRSC16054 | 5.20e5 | – | 7.80e5 | – |
| Cpr72Ea (GeneID 39814) | DRSC10451 | 1.62e6 | 1.62e6 | 1.32e6 | 1.41e6 |
| CG32196 (GeneID 317908) | DRSC09548 | 1.74e6 | 1.90e6 | 1.27e6 | 1.46e6 |
| Ugt37D1 (GeneID 53511) | DRSC02645 | 1.51e6 | 1.60e6 | 1.15e6 | 1.26e6 |
| CG7465 (GeneID 38553) | DRSC08592 | 1.53e6 | 1.40e6 | 1.12e6 | 1.25e6 |
| CG30378 (GeneID 246577) | DRSC05071 | 1.43e6 | 1.51e6 | 9.40e5 | 1.02e6 |
| CG14325 (GeneID 42123) | DRSC14804 | 9.24e5 | 1.11e6 | 8.02e5 | 7.98e5 |
| CG9192 (GeneID 38134) | DRSC08639 | 1.25e6 | 1.35e6 | 9.68e5 | 1.17e6 |
| CG5849 (GeneID 42556) | DRSC15893 | 1.34e6 | 1.37e6 | 1.04e6 | 1.11e6 |
| AsnRS (GeneID 35194) | DRSC01990 | 1.37e6 | 1.38e6 | 1.23e6 | 1.24e6 |
| CG9130 + CG9133 | DRSC08624 | 1.69e6 | 1.67e6 | 1.20e6 | 1.31e6 |
| CG9130 + CG9133 | DRSC08625 | 1.36e6 | 1.45e6 | 1.04e6 | 1.08e6 |
| drongo (GeneID 33263) | DRSC00814 | 1.35e6 | 1.35e6 | 9.62e5 | 1.10e6 |
| Rac1 (GeneID 38146) | DRSC08688 | 1.43e6 | 1.27e6 | 1.08e6 | 1.26e6 |
| CG5290 (GeneID 39998) | DRSC10501 | 1.78e6 | 1.79e6 | 1.50e6 | 1.56e6 |
| CG9346 (GeneID 37381) | DRSC04542 | 1.34e6 | 1.48e6 | 1.08e6 | 1.12e6 |
| ms(3)K81 (GeneID 43232) | DRSC14746 | 1.65e6 | 1.71e6 | 1.02e6 | 1.14e6 |
| laza (GeneID 40468) | DRSC11661 | 1.65e6 | 1.70e6 | 1.25e6 | 1.31e6 |
| Obp69a (GeneID 39411) | DRSC11247 | 1.68e6 | 1.69e6 | 1.23e6 | 1.32e6 |
| daw (GeneID 33474) | DRSC00479 | 1.31e6 | 1.32e6 | 9.22e5 | 1.01e6 |
| Ced-12 (GeneID 34633) | DRSC02840 | 1.63e6 | 1.67e6 | 1.27e6 | 1.45e6 |
| CG3906 (GeneID 37721) | DRSC04431 | 1.52e6 | 1.54e6 | 1.14e6 | 1.23e6 |
| CG42458 (GeneID 2768945) | DRSC10335 | 1.18e6 (active) | 1.22e6 | 5.54e5 | 5.81e5 |
| Cpr76Bd (GeneID 40123) | DRSC11063 | 1.42e6 | 1.75e6 | 1.25e6 | 1.39e6 |
| CG9380 (GeneID 38011) | DRSC04549 | 1.65e6 | 1.67e6 | 1.36e6 | 1.35e6 |
| mRpL23 (GeneID 38302) | DRSC08307 | 1.35e6 | 1.24e6 | 9.13e5 | 1.05e6 |
| Sld5 (GeneID 43166) | DRSC14892 | 1.58e6 | 1.74e6 | 1.06e6 | 1.11e6 |
